PubChem BioAssay AID588499 (NMMLSC, 2011)
About 610 (0.17%) of roughly 360,000 compounds were called active. Inconclusive means that the source gave no clear call. Such entries were picked first, then a sample of the others. Rule as the data show it: active = inhibition above about 30%; inconclusive = no clear call, values can overlap the other calls; inactive = below that.

Tested on: Botulinum neurotoxin type A light chain protease (Clostridium botulinum A str. ATCC 3502)
Assay: blockers of BoNT/A LC substrate cleavage – biochemical, flow cytometry, MLPCN library, primary screen (AID 588499); also: plate controls were buffer without enzyme for full effect and enzyme alone for no effect
Conditions: multiplex microsphere protease substrate cleavage, at 10 µM, hits give high values

| SMILES | inhibition |
| --- | --- |
| COC(=O)CN(C(=S)Nc1ccc(F)cc1)C1CC(=O)N(c2ccc(OC)cc2)C1=O (stereo not given) | inconclusive: 0.2% |
| CC(C)=C1SC(N2CCN(c3ccc(C)c(Cl)c3)CC2)=NC1=O | inconclusive: -2.8% |
| CCOc1ccc(NC(=O)c2[nH]c(C)c(C(C)=O)c2C)cc1 | inactive: -0.9% |
| Cc1cc(C)c(S(=O)(=O)N2CCN(C(=O)C3COc4ccccc4O3)CC2)c(C)c1 (stereo not given) | inactive: -0.8% |
| O=C(CN1CC(c2ccccc2)CC1=O)OCc1cccc(Br)c1 (stereo not given) | inconclusive: 1.6% |
| CCCOc1ccc(-c2nc(=S)[nH][nH]2)cc1 | inconclusive: -0.2% |
| Cc1cccc(NC(c2ccc(O)cc2)c2ccc3ccc(C)nc3c2O)n1 (stereo not given) | inconclusive: 3.1% |
| COc1ccc(C2N(c3ccccn3)C(=O)C3CCCN32)c(OC)c1 (stereo not given) | inactive: -0.3% |
| Cc1cc(C)cc(C(=O)NCC(=O)N2CCN(c3cccc(Cl)c3)CC2)c1 | inactive: -1.1% |
| CCCSc1nnc(NC(=O)c2nc(SC)ncc2Cl)s1 | inconclusive: 7.3% |
| O=C(NCc1cc(Cl)cc(Cl)c1)c1csc([C@@H]2C[C@H](O)[C@@H](CO)O2)n1 | inactive: 0.2% |
| CCOc1ccc2[nH]c(=O)c(C(c3nnnn3C3CCCCC3)N3CCN(CC)CC3)cc2c1 (stereo not given) | inconclusive: -0.3% |
| O=C(Nc1ccc(OC(F)(F)F)cc1)Oc1ccccc1N1CCOCC1 | inconclusive: 3.5% |
| CCO/N=C(\N)c1[nH]ncc1Br | inconclusive: -2.4% |
| CCOC(=O)/C(C#N)=C1\Nc2ccccc2N=C1N(CC(C)C)CC(C)C | active: 37.5% |
| CCCCn1c(SCC(=O)N2CCOCC2)nnc1-c1cccs1 | inconclusive: 0.4% |
| CCCn1c(N)c(N(CCOC)C(=O)c2cccc(S(=O)(=O)N3CCCc4ccccc43)c2)c(=O)[nH]c1=O | inconclusive: 1.4% |
| CN1CCN(c2ccc(-c3cccc4nccn34)cn2)CC1 | inactive: -0.2% |
| O=C(O)CN1C(=O)/C(=C/c2cccc(Cl)c2)Oc2ccccc21 | inactive: -1.5% |
| CCc1nc(NCc2ccc3c(c2)OCO3)c2oc3ccccc3c2n1 | inconclusive: -1.5% |
| COc1ccc(C)cc1NC(=O)CCC(=O)Nc1nnc(C(F)(F)F)s1 | inconclusive: 3% |
| COc1ccc(/C=N/Nc2nc3ccccc3[nH]2)c(OC)c1OC | inconclusive: -6.7% |
| O=C(c1ccc2nc(Cc3ccccc3F)oc2c1)N1CC[C@H](O)C1 | inactive: 0.1% |
| CCCc1cc(C(N)=O)c(NC(=O)c2cc(C)on2)s1 | inconclusive: -1.4% |
| COc1ccc2c(c1)oc(=O)c1cc(OC)ccc12 | inactive: 0.1% |

An excerpt of these results, with bars between the fields:
SMILES | inhibition
O=C(NCc1cc(Cl)cc(Cl)c1)c1csc([C@@H]2C[C@H](O)[C@@H](CO)O2)n1 | inactive: 0.2%
CCOc1ccc2[nH]c(=O)c(C(c3nnnn3C3CCCCC3)N3CCN(CC)CC3)cc2c1 (stereo not given) | inconclusive: -0.3%
